Results reported in PubChem BioAssay AID720708 (National Center for Advancing Translational Sciences (NCATS), 2013).
This list holds what a sample rich in hits left over. Activity calls are given as the source filed them. Calls follow the shape of the dose curve; as a rule, active = well fitted inhibition curve with a large enough effect; inconclusive = small, poorly fitted or top-dose-only effect; inactive = no such curve, though single readings can be large or run the other way.

Amino acid sequences for entries named in this document (tags omitted). A change or cut given only in a name is not applied to a line headed by its entry.
UniProt Q8WZA2: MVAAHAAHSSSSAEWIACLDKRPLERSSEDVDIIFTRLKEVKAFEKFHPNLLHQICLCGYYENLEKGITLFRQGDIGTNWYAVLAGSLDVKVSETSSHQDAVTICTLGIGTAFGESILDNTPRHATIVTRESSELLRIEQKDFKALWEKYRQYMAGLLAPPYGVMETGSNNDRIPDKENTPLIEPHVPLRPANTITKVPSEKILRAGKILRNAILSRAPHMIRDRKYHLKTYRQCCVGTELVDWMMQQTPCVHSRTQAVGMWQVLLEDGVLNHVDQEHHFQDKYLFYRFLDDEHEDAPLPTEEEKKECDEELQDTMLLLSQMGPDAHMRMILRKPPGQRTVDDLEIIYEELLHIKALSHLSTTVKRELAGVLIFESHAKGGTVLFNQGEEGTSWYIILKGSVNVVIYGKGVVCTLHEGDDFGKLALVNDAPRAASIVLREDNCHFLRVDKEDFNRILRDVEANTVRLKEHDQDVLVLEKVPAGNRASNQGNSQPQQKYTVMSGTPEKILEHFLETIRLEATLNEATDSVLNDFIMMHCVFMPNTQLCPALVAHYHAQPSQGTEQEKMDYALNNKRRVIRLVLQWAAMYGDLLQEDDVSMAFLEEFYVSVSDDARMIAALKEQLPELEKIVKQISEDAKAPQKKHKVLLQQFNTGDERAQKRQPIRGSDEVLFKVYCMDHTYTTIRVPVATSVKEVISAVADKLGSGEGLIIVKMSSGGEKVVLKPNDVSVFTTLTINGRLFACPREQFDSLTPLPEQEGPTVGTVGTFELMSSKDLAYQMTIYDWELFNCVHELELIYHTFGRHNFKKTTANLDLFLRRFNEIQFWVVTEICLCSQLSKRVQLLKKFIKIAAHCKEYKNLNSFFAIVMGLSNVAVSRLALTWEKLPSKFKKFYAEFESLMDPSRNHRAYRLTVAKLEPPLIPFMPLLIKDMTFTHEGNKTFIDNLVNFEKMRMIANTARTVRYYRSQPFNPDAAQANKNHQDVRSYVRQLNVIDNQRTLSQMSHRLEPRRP

The molecules below were run against Rap guanine nucleotide exchange factor 4 (Homo sapiens) (UniProt Q8WZA2) (assay: qHTS for Antagonist of cAMP-regulated guanine nucleotide exchange factor 2 (EPAC2): primary screen). Details: EPAC2 GEF exchange of Rap1B-BODIPY-GDP, fluorescence; at 114 µM (top of the series).
Text: In multi-cellular eukaryotic organisms, the effects of cAMP are transduced by two ubiquitously-expressed intracellular cAMP receptors, the classic protein kinase A/cAMP-dependent protein kinase (PKA/cAPK) and the more recently discovered exchange protein directly activated by cAMP/cAMP-regulated guanine nucleotide exchange factor (EPAC/cAMP-GEF). Both PKA and EPAC are ubiquitously expressed in all tissues, and an increase in intracellular cAMP levels will lead to the activation of both PKA and EPAC. […]
This qHTS will be used to screen the Molecular Libraries Small Molecule Repository (MLSMR) as a concentration-titration series using the NCGC unique quantitative screening (qHTS) platform to find inhibitors for EPAC2. […] Inhibitors are identified by monitoring the change in fluorescence signal as the exchanged free BODIPY-GDP has a reduced fluorescence compared to Rap1-bound BODIPY-GDP. […]
Briefly, three uL of reagents (100 nM EPAC2, 250 nM RAP1B-BODIPY-GDP, 50 uM GDP) were dispensed into a 1536-well Greiner black solid-bottom medium binding assay plate. […] The assay plates were read at 5 minute intervals for 30 minutes in the ViewLux plate reader using 480nm excitation and 540nm emission filters. […]
% is scaled to controls: 0 for no effect and ±100 for the full control effect.
Also: nearly all actives have a fitted effect of over 45% in size.

**Q.** For `O=C1/C(=C/c2ccncc2)Cc2ccccc21`, which activity, negative = inhibition is on record?
**A.** inactive: 33.7%

**Q.** How did the activity, negative = inhibition turn out when `CN1[C@@H]2CC[C@H]1CC(OC(=O)C(O)c1ccccc1)C2` (some centres not stated) was run?
**A.** inactive: 34.1%
